Values from PubChem BioAssay AID1259308 (NCATS, 2017).
Here is an unselected part of about 59,000 deposited reagents. Over the whole deposit, about 1,510 (2.6%) were called active. 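Calls use total luciferase alone and ignore viability, so some active siRNAs may act by altering cell number.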 Reagents against one gene are numbered here. Further read-outs or replicates are left out here.

Assay: 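Knock-downs that increase output of a recombinant reporter protein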 (primary screen)
System: human HEK293 embryonic kidney cells stably expressing firefly luciferase (HEK-CMV-Luc2-Hygro)
Reagent: single siRNA against human genes, 0.8 pmol siRNA per well
Time to read-out: 72 h
Measurement: 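Reporter luminescence and viable-cell signal on separate replicate plates, given as percent of non-targeting control and median/MAD z-scores, plus per-cell luciferase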
Direction: total luciferase, z-score: higher = more reporter protein produced
Active means: 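Active when the median/MAD z-score for overall luciferase is greater than 3; a gene was taken forward for validation with new siRNAs if at least two of its three siRNAs passed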
Meaning of the calls: active = raised luciferase; inactive = no rise

MPPED2 (metallophosphoesterase domain containing 2) #1: total luciferase, z-score = 0.281; outcome = inactive
MPPED2 (metallophosphoesterase domain containing 2) #2: total luciferase, z-score = -2.72; outcome = inactive
MPPED2 (metallophosphoesterase domain containing 2) #3: total luciferase, z-score = -1.33; outcome = inactive
SLC6A11 #1: total luciferase, z-score = -0.522; outcome = inactive
SLC6A11 #2: total luciferase, z-score = -0.0795; outcome = inactive
SLC6A11 #3: total luciferase, z-score = 1.26; outcome = inactive
BMF (Bcl2 modifying factor) #1: total luciferase, z-score = 0.179; outcome = inactive
BMF (Bcl2 modifying factor) #2: total luciferase, z-score = -0.289; outcome = inactive
BMF (Bcl2 modifying factor) #3: total luciferase, z-score = -0.0122; outcome = inactive
ARB2BP (ARB2 family member B, pseudogene) #1: total luciferase, z-score = 0.211; outcome = inactive
ARB2BP (ARB2 family member B, pseudogene) #2: total luciferase, z-score = 1.34; outcome = inactive
ARB2BP (ARB2 family member B, pseudogene) #3: total luciferase, z-score = -0.683; outcome = inactive
SPZ1 (spermatogenic leucine zipper 1) #1: total luciferase, z-score = -0.86; outcome = inactive
SPZ1 (spermatogenic leucine zipper 1) #2: total luciferase, z-score = -0.488; outcome = inactive
SPZ1 (spermatogenic leucine zipper 1) #3: total luciferase, z-score = -0.253; outcome = inactive
KIF25 (kinesin family member 25) #1: total luciferase, z-score = -1.51; outcome = inactive
KIF25 (kinesin family member 25) #2: total luciferase, z-score = -1.54; outcome = inactive
KIF25 (kinesin family member 25) #3: total luciferase, z-score = 1.62; outcome = inactive
KCNB1 (potassium voltage-gated channel subfamily B member 1) #1: total luciferase, z-score = 0.747; outcome = inactive
KCNB1 (potassium voltage-gated channel subfamily B member 1) #2: total luciferase, z-score = 0.164; outcome = inactive
KCNB1 (potassium voltage-gated channel subfamily B member 1) #3: total luciferase, z-score = -0.706; outcome = inactive
ZDHHC11B (zDHHC palmitoyltransferase 11B (putative)) #1: total luciferase, z-score = -1.26; outcome = inactive
ZDHHC11B (zDHHC palmitoyltransferase 11B (putative)) #2: total luciferase, z-score = -0.442; outcome = inactive
ZDHHC11B (zDHHC palmitoyltransferase 11B (putative)) #3: total luciferase, z-score = 1.34; outcome = inactive
ENTREP3 (endosomal transmembrane epsin interactor 3) #1: total luciferase, z-score = 0.492; outcome = inactive
ENTREP3 (endosomal transmembrane epsin interactor 3) #2: total luciferase, z-score = 0.119; outcome = inactive
ENTREP3 (endosomal transmembrane epsin interactor 3) #3: total luciferase, z-score = 2.63; outcome = inactive
LMO7DN (LMO7 downstream neighbor) #1: total luciferase, z-score = 1.85; outcome = inactive
LMO7DN (LMO7 downstream neighbor) #2: total luciferase, z-score = -0.312; outcome = inactive
LMO7DN (LMO7 downstream neighbor) #3: total luciferase, z-score = 0.149; outcome = inactive
CADM3 (cell adhesion molecule 3) #1: total luciferase, z-score = 1.24; outcome = inactive
CADM3 (cell adhesion molecule 3) #2: total luciferase, z-score = 2.56; outcome = inactive
CADM3 (cell adhesion molecule 3) #3: total luciferase, z-score = -0.712; outcome = inactive

3 consecutive records from above, quoted:
BMF (Bcl2 modifying factor) #2: total luciferase, z-score = -0.289; outcome = inactive
BMF (Bcl2 modifying factor) #3: total luciferase, z-score = -0.0122; outcome = inactive
ARB2BP (ARB2 family member B, pseudogene) #1: total luciferase, z-score = 0.211; outcome = inactive
